Test results reported in PMC8763660.
No constants are given. Whether binding was seen depends on the method and setting. Binding seen in cells or lysates may run through a third protein. Sequences can lack the tags named with a protein.

By UniProt entry, the sequences of proteins in these tests, tags left out. Residues count along the entry.
UniProt Q13443, residues 29-819: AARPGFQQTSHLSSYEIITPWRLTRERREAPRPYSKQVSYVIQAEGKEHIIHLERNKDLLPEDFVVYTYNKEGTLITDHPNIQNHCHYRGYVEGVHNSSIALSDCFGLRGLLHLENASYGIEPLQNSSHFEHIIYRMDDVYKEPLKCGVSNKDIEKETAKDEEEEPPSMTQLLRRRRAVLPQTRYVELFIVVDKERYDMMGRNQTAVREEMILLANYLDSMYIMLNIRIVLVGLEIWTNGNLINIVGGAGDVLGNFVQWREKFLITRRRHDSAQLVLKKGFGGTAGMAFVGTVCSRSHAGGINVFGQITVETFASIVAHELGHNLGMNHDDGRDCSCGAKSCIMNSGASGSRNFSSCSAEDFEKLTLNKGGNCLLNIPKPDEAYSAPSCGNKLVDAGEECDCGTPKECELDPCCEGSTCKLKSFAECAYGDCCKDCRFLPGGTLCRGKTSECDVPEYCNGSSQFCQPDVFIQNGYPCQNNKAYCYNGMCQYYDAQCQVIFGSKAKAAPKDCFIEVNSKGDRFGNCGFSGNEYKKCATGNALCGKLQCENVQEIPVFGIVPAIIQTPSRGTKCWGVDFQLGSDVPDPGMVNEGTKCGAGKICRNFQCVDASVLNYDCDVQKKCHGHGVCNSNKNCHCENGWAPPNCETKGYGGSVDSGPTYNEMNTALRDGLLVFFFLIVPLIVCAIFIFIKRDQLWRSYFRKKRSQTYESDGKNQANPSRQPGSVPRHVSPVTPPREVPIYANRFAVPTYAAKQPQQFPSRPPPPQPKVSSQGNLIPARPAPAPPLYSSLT

Target: Flag-tagged ADAM9 (disintegrin and metalloproteinase domain-containing protein 9) (human) (UniProt Q13443)
Assay: co-IP; Myc-tagged USP39 and Flag-tagged ADAM9 co-transfected with or without HA-tagged Ub into HEK293T cells; which protein was precipitated not given

B1: Myc-tagged USP39 (ubiquitin-specific peptidase 39) (protein, UniProt Q53GS9 1-565)
chain: MSGRSKRESRGSTRGKRESESRGSSGRVKRERDREREPEAASSRGSPVRVKREFEPASAREAPASVVPFVRVKREREVDEDSEPEREVRAKNGRVDSEDRRSRHCPYLDTINRSVLDFDFEKLCSISLSHINAYACLVCGKYFQGRGLKSHAYIHSVQFSHHVFLNLHTLKFYCLPDNYEIIDSSLEDITYVLKPTFTKQQIANLDKQAKLSRAYDGTTYLPGIVGLNNIKANDYANAVLQALSNVPPLRNYFLEEDNYKNIKRPPGDIMFLLVQRFGELMRKLWNPRNFKAHVSPHEMLQAVVLCSKKTFQITKQGDGVDFLSWFLNALHSALGGTKKKKKTIVTDVFQGSMRIFTKKLPHPDLPAEEKEQLLHNDEYQETMVESTFMYLTLDLPTAPLYKDEKEQLIIPQVPLFNILAKFNGITEKEYKTYKENFLKRFQLTKLPPYLIFCIKRFTKNNFFVEKNPTIVNFPITNVDLREYLSEEVQAVHKNTTYDLIANIVHDGKPSEGSYRIHVLHHGTGKWYELQDLQVTDILPQMITLSEAYIQIWKRRDNDETNQQGA
**Q.** For B1, which binding is on record?
**A.** The binding was “no binding”.
